Measured data: PubChem BioAssay AID504786 (Drosophila RNAi Screening Center, 2011)
The deposit covers about 21,000 reagents; below is an unselected part of those that have a named target and a result. 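Primary screen; positive scores mean lost reporter signal, so the sign may be inverted from the usual convention.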 Names joined by + are all predicted targets of the reagent. No sequences are given here.

Aim: 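Positive regulators of HIF-driven reporter output in Drosophila cells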 (primary screen)
System: Drosophila S2 cells with a stable HIF luciferase reporter
Reagents: long dsRNA against Drosophila genes, about 0.2 µg dsRNA per well of a 384-well plate
Time to read-out: three days of knock-down, then 20 h of DFO before reading
Challenge: desferrioxamine (DFO) at 100 µM, an iron chelator that mimics hypoxia, for 20 h
Measurement: 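Firefly luciferase driven by the mouse ldh-a hypoxia-response element, measured after 20 h of 100 µM DFO; z-scores per plate, higher means more signal lost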
Direction: z-score: higher = stronger loss of HIF reporter signal

gene | DRSC id | z-score, replicate 1 | z-score, replicate 2 | z-score, replicate 3 | z-score, replicate 4
CG9109 (GeneID 33844) | DRSC03139 | 0.1 | -0.1 | – | –
pdgy (GeneID 32426) | DRSC19064 | -0.1 | -0.3 | – | –
pdgy (GeneID 32426) | DRSC19341 | -0.2 | -0.6 | – | –
Prx6a (GeneID 33493) | DRSC00565 | -0.3 | -0.4 | – | –
Sik2 (GeneID 31170) | DRSC18522 | -0.2 | -0.6 | – | –
CG14314 (GeneID 42179) | DRSC14793 | -1 | -0.1 | – | –
CG14971 (GeneID 38429) | DRSC08430 | -0.3 | -0.5 | – | –
Npc2h (GeneID 43649) | DRSC14297 | -0.4 | -0.4 | – | –
CG6040 (GeneID 42292) | DRSC15954 | -0.2 | -0.4 | – | –
CG3823 (GeneID 31573) | DRSC18325 | -0.2 | -0.3 | – | –
swa (GeneID 31580) | DRSC18842 | -0.3 | -0.4 | – | –
CG13196 (GeneID 36250) | DRSC06321 | -0.1 | 0 | – | –
CG12817 (GeneID 41250) | DRSC14555 | -0.4 | -0.6 | – | –
mdu (GeneID 32201) | DRSC19860 | 0.2 | 0.5 | – | –
wal (GeneID 36252) | DRSC07717 | -0.4 | -0.4 | – | –
CG18662 (GeneID 50437) | DRSC02691 | -0.2 | -0.2 | – | –
Lipt2 (GeneID 40565) | DRSC12338 | -0.3 | -0.3 | 0 | -0.2
Cpr50Ca (GeneID 36523) | DRSC05454 | -0.1 | -0.2 | – | –
Cpr50Ca (GeneID 36523) | DRSC06372 | -0.2 | -0.5 | – | –
Cpr50Ca (GeneID 36523) | DRSC06375 | 0 | -0.3 | – | –
mago (GeneID 37402) | DRSC04703 | 1.5 | 1.5 | – | –
CG32603 (GeneID 318109) | DRSC19409 | -0.1 | -0.9 | – | –
CG5323 (GeneID 37137) | DRSC06929 | -0.2 | -0.4 | – | –
mRpL10 (GeneID 33182) | DRSC00312 | 1.2 | 0.9 | – | –
fry (GeneID 39122) | DRSC08993 | 0.1 | -0.1 | – | –
fry (GeneID 39122) | DRSC10172 | -0.3 | -0.4 | – | –
fry (GeneID 39122) | DRSC10709 | -0.3 | -0.4 | – | –
fry (GeneID 39122) | DRSC10712 | 0.1 | 1 | – | –
CG3732 (GeneID 37588) | DRSC04410 | -0.3 | -0.4 | – | –
O-fut1 (GeneID 36564) | DRSC06138 | -0.2 | -0.5 | – | –
kipf (GeneID 40937) | DRSC15446 | -0.4 | -1.1 | -0.7 | -0.3
Proc (GeneID 250710) | DRSC03009 | 1.6 | 5.1 | – | –
ACC (GeneID 35761) | DRSC06059 | 0.8 | 1.1 | – | –
ACC (GeneID 35761) | DRSC07249 | 0.5 | 1.8 | – | –
CG15742 (GeneID 32276) | DRSC19708 | -0.4 | -0.7 | – | –
CG8067 (GeneID 36552) | DRSC07065 | -0.3 | 0.9 | – | –
CG11854 (GeneID 43037) | DRSC14409 | -0.2 | -0.4 | – | –
CG3704 (GeneID 31043) | DRSC18174 | 0.1 | -0.6 | – | –
CG3704 (GeneID 31043) | DRSC18645 | -0.3 | -0.6 | – | –
CG6225 (GeneID 41559) | DRSC15996 | -0.2 | -0.6 | – | –
CG10073 (GeneID 37225) | DRSC05961 | -0.1 | -0.4 | – | –
spg (GeneID 43404) | DRSC14373 | -0.2 | -0.6 | – | –
spg (GeneID 43404) | DRSC14881 | -0.4 | 0.3 | – | –
Slbp (GeneID 43448) | DRSC16863 | -0.2 | 0.6 | – | –
al (GeneID 33208) | DRSC00799 | -0.2 | 0 | – | –
CG31797 (GeneID 35203) | DRSC02476 | -0.2 | -0.4 | – | –
CG31797 (GeneID 35203) | DRSC02477 | -0.3 | -0.5 | – | –
Drip (GeneID 36236) | DRSC07405 | -0.3 | -0.3 | – | –
CG14673 (retired record) (GeneID 40688) | DRSC12259 | -0.4 | -0.7 | – | –
CG16787 (GeneID 37811) | DRSC04282 | -0.2 | 0.1 | – | –
Drsl6 (GeneID 38416) | DRSC08161 | -0.3 | -0.8 | – | –
CG15312 (GeneID 31940) | DRSC18000 | 0.2 | 0.5 | – | –
CG9263 (GeneID 34770) | DRSC03176 | -0.2 | -0.5 | – | –
PolZ1 (GeneID 47186) | DRSC06800 | -0.3 | -0.2 | – | –
Mipp2 (GeneID 31544) | DRSC18682 | -0.3 | -0.5 | – | –
Mettl3 (GeneID 42844) | DRSC15921 | -0.2 | -0.5 | – | –
vnc + CG42455 | DRSC09867 | 1.7 | 2.4 | – | –
CG7741 (GeneID 36208) | DRSC07035 | -0.2 | -0.1 | – | –
Dnaaf5 (GeneID 318680) | DRSC13032 | 0.5 | -0.2 | – | –
CG42272 (GeneID 318020) | DRSC08766 | -0.4 | -0.1 | – | –
brv2 (GeneID 39932) | DRSC10226 | 0.2 | 0.1 | – | –
Eogt (GeneID 33424) | DRSC00727 | -0.4 | -0.2 | – | –
CG10514 (GeneID 43052) | DRSC14249 | 0 | 0 | – | –
CG17764 (GeneID 31440) | DRSC18135 | -0.1 | 0.4 | – | –
Nipped-A (GeneID 35483) | DRSC04882 | -0.3 | 0 | -0.3 | -0.2
Nipped-A (GeneID 35483) | DRSC04883 | 0.7 | 1.4 | – | –
Nipped-A (GeneID 35483) | DRSC04884 | 1.2 | 1 | – | –
Nipped-A (GeneID 35483) | DRSC07738 | 0.1 | 0.5 | – | –
CG5897 (GeneID 39346) | DRSC10555 | -0.2 | -0.1 | – | –
Gyc32E (GeneID 34553) | DRSC01154 | -0.3 | -0.4 | – | –
Ids (GeneID 38423) | DRSC08222 | -0.3 | -0.4 | – | –
Phk-3 (GeneID 37997) | DRSC04547 | -0.2 | 0 | – | –
Cul4 (GeneID 35780) | DRSC07243 | 1 | 1.3 | – | –
Fmo-2 (GeneID 35561) | DRSC04983 | -0.2 | -0.1 | – | –
Nha1 (GeneID 33961) | DRSC02109 | -0.3 | -0.5 | – | –
CG17684 (GeneID 3355066) | DRSC07724 | -0.1 | -0.1 | – | –
CG17684 (GeneID 3355066) | DRSC21166 | -0.3 | -0.4 | – | –
CG8927 (GeneID 41964) | DRSC16458 | -0.5 | 0.6 | – | –
CG7029 (GeneID 42703) | DRSC16177 | -0.2 | 0.3 | – | –
RpS15 (GeneID 36851) | DRSC07151 | 6.9 | 4.4 | – | –
CG6195 (GeneID 42343) | DRSC15989 | -0.3 | -0.2 | – | –
CG44098 (GeneID 40590) | DRSC12214 | -0.4 | 0.2 | – | –
CG44098 (GeneID 40590) | DRSC12327 | -0.3 | -0.4 | – | –

Entries above whose gene name starts with A or a (3):
gene | DRSC id | z-score, replicate 1 | z-score, replicate 2 | z-score, replicate 3 | z-score, replicate 4
ACC (GeneID 35761) | DRSC06059 | 0.8 | 1.1 | – | –
ACC (GeneID 35761) | DRSC07249 | 0.5 | 1.8 | – | –
al (GeneID 33208) | DRSC00799 | -0.2 | 0 | – | –
